{"sequences": {"note": "By UniProt entry, the sequences of proteins in these tests, tags left out.", "UniProt Q00975, whole entry, looked up": "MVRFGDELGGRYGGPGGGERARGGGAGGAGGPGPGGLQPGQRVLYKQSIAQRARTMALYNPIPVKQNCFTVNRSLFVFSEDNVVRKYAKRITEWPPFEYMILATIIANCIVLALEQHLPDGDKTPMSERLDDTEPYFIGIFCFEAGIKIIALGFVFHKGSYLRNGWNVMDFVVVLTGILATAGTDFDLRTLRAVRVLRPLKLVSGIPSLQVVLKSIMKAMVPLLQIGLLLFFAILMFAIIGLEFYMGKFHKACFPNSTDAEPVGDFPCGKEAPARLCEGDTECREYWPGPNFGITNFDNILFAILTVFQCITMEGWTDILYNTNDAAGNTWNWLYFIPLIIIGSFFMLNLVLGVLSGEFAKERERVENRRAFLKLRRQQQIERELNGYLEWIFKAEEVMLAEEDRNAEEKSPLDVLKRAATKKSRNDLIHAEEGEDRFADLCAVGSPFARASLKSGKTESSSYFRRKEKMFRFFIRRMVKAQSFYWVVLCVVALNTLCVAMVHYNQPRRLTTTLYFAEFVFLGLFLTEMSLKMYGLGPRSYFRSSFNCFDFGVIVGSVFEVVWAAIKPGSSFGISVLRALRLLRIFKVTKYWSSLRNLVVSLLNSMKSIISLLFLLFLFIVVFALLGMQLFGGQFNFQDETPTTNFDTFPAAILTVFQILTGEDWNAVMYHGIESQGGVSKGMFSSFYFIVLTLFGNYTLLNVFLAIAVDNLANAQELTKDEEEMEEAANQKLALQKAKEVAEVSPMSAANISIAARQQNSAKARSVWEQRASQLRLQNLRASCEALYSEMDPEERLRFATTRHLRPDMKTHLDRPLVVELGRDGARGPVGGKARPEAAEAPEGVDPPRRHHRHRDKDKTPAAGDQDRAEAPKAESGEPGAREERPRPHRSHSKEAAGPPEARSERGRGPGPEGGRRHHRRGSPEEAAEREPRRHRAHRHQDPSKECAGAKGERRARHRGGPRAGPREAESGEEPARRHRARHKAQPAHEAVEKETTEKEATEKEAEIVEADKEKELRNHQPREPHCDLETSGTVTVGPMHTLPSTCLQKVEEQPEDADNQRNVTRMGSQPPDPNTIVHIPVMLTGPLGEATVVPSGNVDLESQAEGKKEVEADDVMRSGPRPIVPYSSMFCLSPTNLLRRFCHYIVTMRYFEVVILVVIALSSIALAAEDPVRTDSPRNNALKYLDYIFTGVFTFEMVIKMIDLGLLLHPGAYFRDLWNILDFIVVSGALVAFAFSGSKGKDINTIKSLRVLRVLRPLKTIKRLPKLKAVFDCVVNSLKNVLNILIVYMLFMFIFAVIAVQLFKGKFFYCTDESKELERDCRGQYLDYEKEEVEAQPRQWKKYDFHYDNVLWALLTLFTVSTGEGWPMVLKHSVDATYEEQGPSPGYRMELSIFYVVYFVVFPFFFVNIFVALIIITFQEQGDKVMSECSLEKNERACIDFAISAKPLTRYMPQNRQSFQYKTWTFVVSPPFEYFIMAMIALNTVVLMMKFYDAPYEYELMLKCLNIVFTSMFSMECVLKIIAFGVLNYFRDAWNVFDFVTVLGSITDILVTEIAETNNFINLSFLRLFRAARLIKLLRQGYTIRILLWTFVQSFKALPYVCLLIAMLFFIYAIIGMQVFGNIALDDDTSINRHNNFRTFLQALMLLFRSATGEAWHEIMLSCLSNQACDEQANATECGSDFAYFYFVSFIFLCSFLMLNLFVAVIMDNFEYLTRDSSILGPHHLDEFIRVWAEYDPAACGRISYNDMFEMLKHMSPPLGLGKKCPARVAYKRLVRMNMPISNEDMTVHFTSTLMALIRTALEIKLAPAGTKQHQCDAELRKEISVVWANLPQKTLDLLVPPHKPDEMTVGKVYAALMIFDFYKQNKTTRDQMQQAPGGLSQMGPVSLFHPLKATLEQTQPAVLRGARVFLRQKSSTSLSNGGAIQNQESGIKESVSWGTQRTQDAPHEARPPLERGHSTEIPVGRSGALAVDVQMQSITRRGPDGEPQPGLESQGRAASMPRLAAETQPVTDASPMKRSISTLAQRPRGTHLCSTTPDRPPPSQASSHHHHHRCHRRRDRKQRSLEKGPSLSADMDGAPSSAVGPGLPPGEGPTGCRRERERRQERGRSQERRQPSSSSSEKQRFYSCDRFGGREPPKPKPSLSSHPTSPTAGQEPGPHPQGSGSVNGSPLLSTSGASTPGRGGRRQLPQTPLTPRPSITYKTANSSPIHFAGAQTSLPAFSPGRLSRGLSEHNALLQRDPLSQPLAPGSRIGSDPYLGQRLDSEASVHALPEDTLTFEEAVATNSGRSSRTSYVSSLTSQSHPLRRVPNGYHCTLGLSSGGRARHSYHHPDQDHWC"}, "source": "PubChem BioAssay AID2073", "about": "(Sanford-Burnham Center for Chemical Genomics, 2009)", "note": "Hit rate of the full screen: of about 290,000 compounds, about 570 (0.2%) were called active. This list was built around the results that the source calls inconclusive (neither active nor inactive); the mix of calls is not that of the screen. No stated cut-off is given here; in the data, active means inhibition mostly above about 51% (no sharp cut-off); inconclusive means no clear call, values can overlap the other calls; inactive means mostly below about 53%."}
{"target": "Voltage-dependent N-type calcium channel subunit alpha-1B (Homo sapiens) (UniProt Q00975)", "test": "disruptors of CaV2.2 binding to Mint1 – biochemical, HTRF (AID 2073)", "details": "HTRF protein-protein interaction, Mint1-CaV2.2; at 20 µM; hits give high values"}
{"smiles": "CC(C)Oc1ccc(/C=C(\\NC(=O)/C=C/c2ccco2)C(=O)NCCc2nc3ccccc3[nH]2)cc1", "inhibition": "inactive: 9.4%"}
{"smiles": "Cc1nn(-c2ccccc2)c(C)c1-c1nnc(-c2c(C)nn(-c3ccccc3)c2C)o1", "inhibition": "inconclusive: 50.9%"}
{"smiles": "O=C(O)C(F)(F)S(=O)(=O)O", "inhibition": "inconclusive: 64.4%"}
{"smiles": "CCN1CCN(CC(=O)c2ccc(C)cc2)CC1", "inhibition": "inconclusive: 85.7%"}
{"smiles": "O=C1CCN1C1(C(=O)NC2CCCCC2)CCCC1", "inhibition": "inconclusive: 73.6%"}
{"smiles": "CCCn1c(=O)c2ccccc2n2c(SCC(=O)c3ccc(CC)cc3)nnc12", "inhibition": "inconclusive: 75%"}
{"smiles": "O=C(Nc1ccc2nc(-c3ccco3)c(-c3ccco3)nc2c1)N1CCCCCC1", "inhibition": "active: 71.2%"}
{"smiles": "O=[N+]([O-])c1ccc(N/N=C/c2sc(N3CCOCC3)nc2-c2ccccc2)c(S(=O)(=O)Nc2ccc(Cl)cc2)c1", "inhibition": "active: 67.1%"}
{"smiles": "CCC(C(=O)Nc1cccc(C(F)(F)F)c1)c1ccccc1", "note": "(stereo not given)", "inhibition": "inconclusive: 54.5%"}
{"smiles": "Clc1ccc(N=c2ssnc2Cl)nc1", "inhibition": "inactive: 38.2%"}
{"smiles": "CCn1c(O)c(/C=C/C=C/C=Nc2ccccc2)sc1=S", "inhibition": "inactive: 1.5%"}
{"smiles": "O=C(NCCCO)c1cc([N+](=O)[O-])cc2c1C=Cc1ccccc1O2", "inhibition": "inconclusive: 71.2%"}
{"smiles": "CCOc1cc(N2CCOCC2)c(OCC)cc1NC(=O)Cc1ccc(OC)c(OC)c1", "inhibition": "inconclusive: 74.3%"}
{"smiles": "COC(=O)CSc1nnc(COc2ccc([N+](=O)[O-])cc2)n1C", "inhibition": "inconclusive: 69.7%"}
{"smiles": "COc1ccc(C2=Nc3nc(-c4ccccc4)cn3C(c3ccc(OC)cc3)C2)cc1", "note": "(stereo not given)", "inhibition": "inconclusive: 51.4%"}
{"smiles": "O=C(N/N=C/c1ccco1)c1cc(-c2ccc3ccccc3c2)n[nH]1", "inhibition": "inactive: 5.5%"}
{"smiles": "O=C(Nc1nc(-c2ccco2)c(-c2ccco2)s1)C1CC(=O)N(c2ccc3c(c2)OCCO3)C1", "note": "(stereo not given)", "inhibition": "active: 66.7%"}
{"smiles": "CCOC(=O)c1nccnc1C(=O)Nc1ccc(C(F)(F)F)cc1", "inhibition": "inconclusive: 89.8%"}
{"smiles": "Cn1c(C(=O)NCCN2CCOCC2)cc2c(=O)n3ccccc3nc21", "inhibition": "inconclusive: 57.7%"}
{"smiles": "Cc1ccc(CNC(=O)CN2C(=O)NC(C)(c3ccccc3Cl)C2=O)cc1", "note": "(stereo not given)", "inhibition": "inactive: 6.8%"}
{"smiles": "O=[N+]([O-])/C(C(Cl)=C(Cl)Cl)=C(\\Nc1ccc(F)cc1)n1cncn1", "inhibition": "inconclusive: 57.4%"}
{"smiles": "CCOC(=O)CC(=O)CSc1nc(-c2ccc3c(c2)OCO3)cc(C(F)(F)F)c1C#N", "inhibition": "inconclusive: 62.7%"}
{"smiles": "CCCCNC(=O)c1cn(CC(C)C)c(=O)c2c1c1ccccc1n2C", "inhibition": "inconclusive: 55.1%"}
{"smiles": "Cc1noc(C)c1N=Nc1ccc(Br)cc1C(=O)O", "inhibition": "inconclusive: 62.3%"}
{"smiles": "OCCNC(=S)NCc1ccccc1", "inhibition": "inconclusive: 57.9%"}
{"smiles": "O=C(NCCCN1CCN(Cc2ccccc2)CC1)c1nnc(Cc2c(F)cccc2Cl)o1", "inhibition": "inconclusive: 61.8%"}
{"smiles": "COC(=O)c1ccccc1NC(=O)c1cc2nc(C3CC3)cc(C(F)(F)F)n2n1", "inhibition": "inconclusive: 54.4%"}
{"smiles": "CC(C)CC(OC(=O)c1cccs1)C(=O)NCc1cccs1", "note": "(stereo not given)", "inhibition": "inconclusive: 50.9%"}
{"smiles": "O=c1c2ccccc2nc(SCc2nc(-c3ccccc3)no2)n1-c1ccc(F)cc1", "inhibition": "inconclusive: 51.5%"}
{"smiles": "N#Cc1c(N)sc2c1CCN(CCc1ccccc1)C2", "inhibition": "inactive: 3.3%"}
{"smiles": "Cc1cc(C)cc(C(=O)N2CC(C)OC(C)C2)c1", "note": "(stereo not given)", "inhibition": "inconclusive: 74.9%"}
{"smiles": "OCCNCc1cccc2ccccc12", "inhibition": "inconclusive: 69.4%"}
{"smiles": "COc1ccc(NC(=O)Nc2nnc(-c3ccncc3)s2)cc1", "inhibition": "inactive: 3.4%"}
{"smiles": "Cc1oc(-c2ccc(Cl)cc2)nc1CN1CCC(C(=O)NCCCN2CCCC2=O)CC1", "inhibition": "inconclusive: 55.2%"}
{"smiles": "COC(=O)C1=C(C(=O)OC)[C@@H]2N(C)c3ccc(OC)cc3[C@@]23C[C@@H](C(=O)OC)N(C(=O)c2ccc(Br)cc2)C3=N1", "inhibition": "inactive: 6.3%"}
{"smiles": "COc1ccc(N(C(=O)CCl)C(C(=O)NC2CCCCC2)c2cccnc2)cc1", "note": "(stereo not given)", "inhibition": "inconclusive: 68.9%"}
{"smiles": "Cc1ccc(S(=O)(=O)NCC(=O)N(CC(=O)NCC2CCCO2)c2cccc(F)c2)cc1", "note": "(stereo not given)", "inhibition": "inconclusive: 75%"}
{"smiles": "Cc1cccc(N(Cc2cc3cc(C)ccc3[nH]c2=O)C(=O)c2cccs2)c1", "inhibition": "inconclusive: 83.3%"}
{"smiles": "O=C1NN(c2cccc(Br)c2)C(=O)/C1=C/c1ccc(-c2cc([N+](=O)[O-])ccc2O)o1", "inhibition": "active: 61.4%"}
{"smiles": "COC(=O)c1sc2ccccc2c1NC(=O)c1ccc(S(=O)(=O)N2CCCCC2)cc1", "inhibition": "inconclusive: 75.6%"}
{"smiles": "Cc1c(Cl)cccc1NS(=O)(=O)c1ccc2c(c1)C1C=CCC1C(c1ccc(C(=O)O)cc1)N2", "note": "(stereo not given)", "inhibition": "inactive: 61%"}
{"smiles": "COc1ccc(-n2nnc3c(SCC(=O)Nc4ccc5c(c4)OCCO5)ncnc32)cc1", "inhibition": "inconclusive: 52.9%"}
{"smiles": "COc1ccc(Cn2nnnc2C(c2cc3ccc(OC)cc3[nH]c2=O)N2CCC(C)CC2)cc1", "note": "(stereo not given)", "inhibition": "inconclusive: 59%"}
{"smiles": "O=S(=O)(Cc1ccccc1)N1CCN(c2ncccn2)CC1", "inhibition": "inactive: 7.7%"}
{"smiles": "CCOC(=O)N1CCN(C(=O)CSc2ncccn2)CC1", "inhibition": "inconclusive: 61.1%"}
{"smiles": "COc1ccc(C(=O)Nc2ccc(Cl)cc2C(=O)NCCO)cc1", "inhibition": "inactive: -1.8%"}
{"smiles": "Cc1cccc(OCCNC(=O)CSc2ccc(C(F)(F)F)cc2[N+](=O)[O-])c1", "inhibition": "inconclusive: 65.6%"}
{"smiles": "Cc1nn(CC(=O)NCC2CCCO2)c(C)c1[N+](=O)[O-]", "note": "(stereo not given)", "inhibition": "inactive: 5.2%"}
{"smiles": "Cc1ccc(N=C2NC(=O)/C(=C/C=C/c3ccco3)S2)cc1C", "inhibition": "active: 76%"}
{"smiles": "COc1ccc(Br)cc1C(=O)N/N=C/c1ccc2c(c1)n(C)c(=O)n2C", "inhibition": "inconclusive: 62.9%"}
{"smiles": "Cc1cc(=O)oc2c3c(cc(OCC(=O)N4CCC(C(=O)O)CC4)c12)OC(C)(C)CC3", "inhibition": "inconclusive: 50.5%"}
{"smiles": "COc1ccc2c(c1OC)C(=O)N(c1cccc(/C=C/C(=O)O)c1)C2", "inhibition": "inconclusive: 67.2%"}
{"smiles": "Cc1c(O)ccc2c(CN3CCN(C/C=C/c4ccccc4)CC3)cc(=O)oc12", "inhibition": "inconclusive: 65.7%"}
{"smiles": "O=C(CSc1nnc(-c2ccco2)n1-c1ccccc1)NCC1CCCO1", "note": "(stereo not given)", "inhibition": "inactive: 9.9%"}
{"smiles": "CN(N)c1nc(-c2ccccc2)cc(-c2ccccc2)n1", "inhibition": "inactive: -4.2%"}
